Test results reported in patent US10011570B2, “Nucleic acid binding dyes with improved safety” (Biotium, Inc., priority 2013, dated 2018).
Entries after “also recorded” stand apart in the source; their conditions may differ.

Legend:
[1] = Glove permeability test; conditions: 3.25 uM dye (5× gel staining concentration), 48 hours
[2] = system: linearized plasmid DNA; experiment: Dye carryover after gel extraction of nucleic acids from agarose gels; conditions: silica spin column gel extraction kits, exposure up to 12 seconds

## C[N+](C)(C)CCC[n+]1c(-c2ccc(S(=O)(=O)[O-])cc2)c2cc(N)ccc2c2ccc(N)cc21.[I-] [Dye No. 11]
[1]
  dye detected inside / leaked through the glove finger: no significant amount; also recorded: minimal amount

## CC[N+](C)(CC)CCC[n+]1c(-c2ccc(S(=O)(=O)[O-])cc2)c2cc(N)ccc2c2ccc(N)cc21.[I-] [Dye No. 10]
[2]
  dye carryover after gel extraction: no visible dye carryover

## C[n+]1c(C=C2C=CN(CCCSCC(N)C(=O)[O-])c3ccccc32)sc2ccccc21.I (stereo not shown) [Dye No. 4]
[2]
  dye carryover after gel extraction: no visible dye carryover
[1]
  dye detected inside / leaked through the glove finger: no significant amount; also recorded: minimal amount
